Experimental data as given in patent US20090156614A1, “Selective androgen receptor modulators, analogs and derivatives thereof and uses thereof” (priority 2006, published 2009).

Assay: Intramolecular hydrogen bonding analysis of solution conformation (NOESY, DMSO-d6)
Assay type: physicochemical
Conditions: hydrogen bond defined as <3.1 Å

SMILES | NH—OH interatomic distance (linker amide proton to linker hydroxyl oxygen) | NH—X interatomic distance (linker amide proton to linker X-position atom)
CC(=O)Nc1ccc(OC[C@](C)(O)C(=O)Nc2ccc([N+](=O)[O-])c(C(F)(F)F)c2)cc1 [Compound S-4] | 2.7 Å | 1.9 Å
C[C@](O)(CS(=O)(=O)c1ccc(F)cc1)C(=O)Nc1ccc([N+](=O)[O-])c(C(F)(F)F)c1 [Compound X-3] | 2.0 Å | 3.6 Å
C[C@](O)(CNc1ccc(F)cc1)C(=O)Nc1ccc([N+](=O)[O-])c(C(F)(F)F)c1 [Compound X-4] | 2.3 Å | 4.4 Å
C[C@](O)(CCc1ccc(F)cc1)C(=O)Nc1ccc([N+](=O)[O-])c(C(F)(F)F)c1 [Compound X-5] | 2.0 Å | 3.9 Å
C[C@](O)(CSc1ccc(F)cc1)C(=O)Nc1ccc([N+](=O)[O-])c(C(F)(F)F)c1 [Compound X-2] | 2.1 Å | 3.0 Å
C[C@](O)(COc1ccc(F)cc1)C(=O)Nc1ccc([N+](=O)[O-])c(C(F)(F)F)c1 [Compound S-1] | 2.4 Å | 2.3 Å
